Results on 32 molecules are retold here after patent US20230052369A1.

Where a chain is given by its changes, count along the chain named. Results are given in words; binding and its absence hold for the method and conditions named. Binding calls can cover weak binding; strength is not graded here.

The target of experiment [1] is SEC-purified Cyno 4-1BB-His (cynomolgus). In words: SPR, Ab captured, cyno 4-1BB-His injected. Background: Surface plasmon resonance follows binding to a sensor surface in real time, without labels.
In experiment [2] the target is purified human monomeric 4-1BB (human). In words: SPR.

B1: v28684 (antibody, human IgG1, kappa, L234A L235A, V domains shown)
VH: EVQLVESGGGLVQPGGSLRLSCAASGFTFSEFGMHWVRQAPGKGLEWVSYISSGGSTIYYADSVKGRFTISRDNAKNSLYLQMNSLRAEDTAVYYCARDWVDYWGQGTLVTVSS
VL: EIVLTQSPATLSLSPGERATLSCKASENVGSYVSWYQQKPGQAPRLLIYGASNRYTGVPARFSGSGSGTDFTLTISSLEPEDFAVYYCGQSYSYPLTFGGGTKVEIKR
With B1, the binding entry in experiment [1] and in experiment [2] was “binds” each time.

B2: v28686 (antibody, human IgG1, kappa, L234A L235A, V domains shown)
VH: B1 VH
VL: B1 VL with L4M, A19V, L78V, F83L, V104L, I106L
As to B2, in experiment [2], the binding result is “binds”.

B3: v28687 (antibody, human IgG1, kappa, L234A L235A, V domains shown)
VH: B1 VH with S49A, V110L
VL: B1 VL with V58I
For the molecule B3, in experiment [2], the binding result is given as “binds”.

B4: v28693 (antibody, human IgG1, kappa, L234A L235A, V domains shown)
VH: B1 VH with S49A, V93M, V110L
VL: B1 VL with L4M, A19V, L78V, V104L, I106L
Turning to B4, the binding result in experiment [2] was “binds”.

B5: v28685 (antibody, human IgG1, kappa, L234A L235A, V domains shown)
VH: B1 VH
VL: B1 VL with L4M, A19V, L78V, V104L, I106L
On to B5, for which the binding entry in experiment [2] is listed as “binds”.

B6: v28683 (antibody, human IgG1, kappa, L234A L235A, V domains shown)
VH: B1 VH
VL: B1 VL with V58I
B6: in experiment [2], the binding entry is given as “binds”.

B7: v28688 (antibody, human IgG1, kappa, L234A L235A, V domains shown)
VH: B1 VH with S49A, V110L
VL: B1 VL
B7: the binding result in experiment [2] is recorded as “binds”.

B8: v28691 (antibody, human IgG1, kappa, L234A L235A, V domains shown)
VH: B1 VH with S49A, V93M, V110L
VL: B1 VL with V58I
For the molecule B8, the binding result in experiment [2] was “binds”.

B9: v28692 (antibody, human IgG1, kappa, L234A L235A, V domains shown)
VH: B1 VH with S49A, V93M, V110L
VL: B1 VL
As to B9, the binding entry in experiment [2] is listed as “binds”.

B10: v28690 (antibody, human IgG1, kappa, L234A L235A, V domains shown)
VH: B1 VH with S49A, V110L
VL: B1 VL with L4M, A19V, L78V, F83L, V104L, I106L
On to B10, for which the binding result in experiment [2] was “binds”.

B11: v28694 (antibody, human IgG1, kappa, L234A L235A, V domains shown)
VH: B1 VH with S49A, V93M, V110L
VL: B1 VL with L4M, A19V, L78V, F83L, V104L, I106L
Take B11: the binding result in experiment [2] was “binds”.

B12: v28689 (antibody, human IgG1, kappa, L234A L235A, V domains shown)
VH: B1 VH with S49A, V110L
VL: B1 VL with L4M, A19V, L78V, V104L, I106L
Regarding B12, the binding entry in experiment [2] was “binds”.

B13: v28727 (antibody, human IgG1, kappa, L234A L235A, V domains shown)
VH: EVQLVESGGGLIQPGGSLRISCAVSGFSLTTYAISWVRQAPGKGLEWLGIIWPGGGTNYADSLKGRLTISKDNSKNTVYLQMNSLRTEDTAVYYCARGAGTWYFDVWGQGTLVTVSS
VL: DIQMTQSPSSLSASVGDRVTITCSASQGISNYLNWYQQKPGKAPKLLIYYTSSLHSGVPSRFSGSGSGTDFTFTISSLQPEDIATYYCQQYSKFPWTFGQGTKVEIKR
Regarding B13, in experiment [2], the binding entry was “binds”.

B14: v20022 (antibody, human IgG1, kappa, L234A L235A, V domains shown)
VH: QVQLKESGPGLVAPSQSLSITCTVSGFSLTTYAISWVRQPPGKGLEWLGIIWPGGGTNYNSALKSRLSISKDNSRSQVFLKMNSLQTDDTARYYCARGAGTWYFDVWGAGTTVTVSS
VL: DIQMTQSTSSLSASVGDRVTISCSASQGISNYLNWYQQKPDGTVKLLIYYTSSLHSGVPSRFSGSGSGTDYSLTISNLEPEDIATYYCQQYSKFPWTFGGGTKLEIKR
Turning to B14, the binding entry in experiment [1] is listed as “binds”.

B15: v28726 (antibody, human IgG1, kappa, L234A L235A, V domains shown)
VH: B13 VH with I20L, L63V, L67F, V78L, T87A
VL: B13 VL with A43T, P44V, F71Y, F73L, V104L
Regarding B15, the binding entry in experiment [2] is recorded as “binds”.

B16: v28730 (antibody, human IgG1, kappa, L234A L235A, V domains shown)
VH: B13 VH
VL: B13 VL with A43T, P44V, F71Y, F73L, V104L
In the case of B16, the binding result in experiment [2] is listed as “binds”.

B17: v28728 (antibody, human IgG1, kappa, L234A L235A, V domains shown)
VH: B13 VH
VL: B13 VL with F71Y, F73L, V104L
For the molecule B17, in experiment [2], the binding result is recorded as “binds”.

B18: v20023 (antibody, human IgG1, kappa, L234A L235A, V domains shown)
VH: EVQLVESGGGLVKPGGSRKLSCAASGFTFSEFGMHWVRQAPDKGLKWVAYISSGGSTIYYADTVKGRFTISRDNAKNTLFLQMTSLRSEDTAMYYCARDWVDYWGQGTTLTVSS
VL: NIVMTQSPKSMSMSVGERVTLSCKASENVGSYVSWYQQKPEKSPKLLIYGASNRYTGVPDRFTGSGSATDFTLTISSVQAEDLADYHCGQSYSYPLTFGAGTKLELKR
On to B18, for which the binding entry in experiment [1] was “binds”.

B19: v28704 (antibody, human IgG1, kappa, L234A L235A, V domains shown)
VH: QVQLQESGPGLVKPSETLSITCTVSGFSLISYGVHWVRQPPGKGLEWLGVIWSGGSTDYNPSLKSRVTISKDTSKNQVSFKLSSLTAADTAIYYCARNPLTATVMDYWGQGTLVTVSS
VL: DIQMTQSPSSLSASVGDRVTITCRASQNVGTNVAWYQQKPGKAPKALIYSASYRDSGVPSRFSGSGSGTDFTLTISSLQPEDFATYYCQQYNSYPLTFGGGTKVEIKR
B19: the binding entry in experiment [2] was “binds”.

B20: v28713 (antibody, human IgG1, kappa, L234A L235A, V domains shown)
VH: B19 VH with T73N
VL: B19 VL with I21V, L78V, F83L, V104L
Turning to B20, the binding entry in experiment [2] is on record as “binds”.

B21: v28711 (antibody, human IgG1, kappa, L234A L235A, V domains shown)
VH: B19 VH with T73N
VL: B19 VL
For the molecule B21, the binding result in experiment [2] is “binds”.

B22: v28696 (antibody, human IgG1, kappa, L234A L235A, V domains shown)
VH: B19 VH with I20L, V37I, L48I, K71V, V78F, F80L, L85V, I92V
VL: B19 VL
With B22, the binding entry in experiment [2] is “binds”.

B23: v28706 (antibody, human IgG1, kappa, L234A L235A, V domains shown)
VH: B19 VH
VL: B19 VL with I21V, L78V, F83L, V104L
In the case of B23, in experiment [2], the binding entry is “binds”.

B24: v28698 (antibody, human IgG1, kappa, L234A L235A, V domains shown)
VH: B19 VH with I20L, V37I, L48I, K71V, V78F, F80L, L85V, I92V
VL: B19 VL with I21V, L78V, F83L, V104L
Take B24: the binding entry in experiment [2] is listed as “binds”.

B25: v28700 (antibody, human IgG1, kappa, L234A L235A, V domains shown)
VH: B19 VH with I20L, V78F, F80L, L85V, I92V
VL: B19 VL
In the case of B25, in experiment [2], the binding entry is “binds”.

B26: v28702 (antibody, human IgG1, kappa, L234A L235A, V domains shown)
VH: B19 VH with I20L, V78F, F80L, L85V, I92V
VL: B19 VL with I21V, L78V, F83L, V104L
Consider B26, for which the binding entry in experiment [2] was “binds”.

B27: v28712 (antibody, human IgG1, kappa, L234A L235A, V domains shown)
VH: B19 VH with T73N
VL: B19 VL with I21V, L78V, V104L
On to B27, for which the binding entry in experiment [2] was “binds”.

B28: v28707 (antibody, human IgG1, kappa, L234A L235A, V domains shown)
VH: B19 VH with T73N
VL: B19 VL with Y36F, A46S
Consider B28, for which the binding entry in experiment [2] is “binds”.

B29: v28703 (antibody, human IgG1, kappa, L234A L235A, V domains shown)
VH: B19 VH
VL: B19 VL with Y36F, A46S
B29: the binding result in experiment [2] is “binds”.

B30: v28705 (antibody, human IgG1, kappa, L234A L235A, V domains shown)
VH: B19 VH
VL: B19 VL with I21V, L78V, V104L
Turning to B30, the binding result in experiment [2] is recorded as “binds”.

B31: v28697 (antibody, human IgG1, kappa, L234A L235A, V domains shown)
VH: B19 VH with I20L, V37I, L48I, K71V, V78F, F80L, L85V, I92V
VL: B19 VL with I21V, L78V, V104L
Take B31: in experiment [2], the binding entry is on record as “binds”.

B32: v28701 (antibody, human IgG1, kappa, L234A L235A, V domains shown)
VH: B19 VH with I20L, V78F, F80L, L85V, I92V
VL: B19 VL with I21V, L78V, V104L
Consider B32, for which the binding result in experiment [2] was “binds”.
